Data on two substances can be found in patent publication US20240342241A1.

Sequences of proteins named here, by UniProt entry; tags and fusion partners are left off. A change or cut given only in a name is not applied to a line headed by its entry.
UniProt Q9UER7: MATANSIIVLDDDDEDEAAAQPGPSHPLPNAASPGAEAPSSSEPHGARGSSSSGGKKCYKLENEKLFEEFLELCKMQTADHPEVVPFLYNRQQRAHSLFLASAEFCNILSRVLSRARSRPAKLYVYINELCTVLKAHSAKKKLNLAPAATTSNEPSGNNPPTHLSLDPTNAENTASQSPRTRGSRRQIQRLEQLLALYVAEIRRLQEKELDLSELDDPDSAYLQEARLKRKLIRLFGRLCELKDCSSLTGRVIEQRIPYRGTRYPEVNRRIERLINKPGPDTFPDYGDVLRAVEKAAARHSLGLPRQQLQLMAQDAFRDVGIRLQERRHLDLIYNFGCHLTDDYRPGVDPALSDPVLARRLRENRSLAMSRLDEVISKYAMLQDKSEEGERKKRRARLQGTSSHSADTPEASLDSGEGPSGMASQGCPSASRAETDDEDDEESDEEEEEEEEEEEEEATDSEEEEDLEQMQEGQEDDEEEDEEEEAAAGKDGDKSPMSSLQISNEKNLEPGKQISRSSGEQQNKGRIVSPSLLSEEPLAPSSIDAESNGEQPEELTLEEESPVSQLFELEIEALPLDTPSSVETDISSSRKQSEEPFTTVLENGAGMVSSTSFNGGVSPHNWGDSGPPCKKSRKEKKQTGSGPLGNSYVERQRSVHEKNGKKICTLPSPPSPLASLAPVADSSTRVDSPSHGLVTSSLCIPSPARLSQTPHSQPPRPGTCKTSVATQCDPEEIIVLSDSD

The target of assay [1] is 6×His-luciferase [luciferase: P08659]. Briefly: pulldown on 6×His-luciferase immobilized on Ni-NTA agarose, Western blot.
Assay [2] shares this target. The assay is described as follows: pulldown on native or heat-denatured 6×His-luciferase immobilized on Ni-NTA agarose, GST-DAXX 100 nM, Western blot.
In assay [3] the target is Flag-nLuc (nucleus-localized luciferase) [luciferase: P08659]. The assay is described as follows: co-immunoprecipitation from HEK293T lysates with anti-Flag M2 beads, Western blot.

No constants are given. Whether binding was seen depends on the method and setting. In cells and extracts the contact can be indirect. Some entries that bind do so weakly or less than the wild type.

With GST-DAXX (from UniProt Q9UER7 1-740), the binding result in assay [1] and in assay [2] was “binds” in each case. As for HA-DAXX (from UniProt Q9UER7 1-740), the binding result in assay [3] is on record as “binds”.
